Record: PubChem BioAssay AID1259254 (NCATS, 2017)
Here is a random part of about 59,000 reagents. About 1,550 of them (2.6%) count as active. 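G2 share is only a proxy for re-replication; each gene was hit by three separate siRNAs, and active genes were retested.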 The raw values are shown without normalisation. Reagents against one gene are numbered here. Not stated in the record: the amount of reagent.

Screen: 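Finding genes that stop cells copying their DNA twice in one cycle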 (primary screen)
Cell system: human HCT116 colorectal cancer cells
Reagents: single siRNA against human genes
Duration: 3 days
Read-out: 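Imaged Hoechst DNA stain sorts each cell into a cycle phase by DNA amount; per plate, G2 fraction set to 0% for non-targeting and 100% for GMNN siRNA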
Scale: G2 robust z-score and G2 cells, % of GMNN control: higher = more G2 cells, more excess DNA replication; raw share of cells in G2: higher = larger share of cells with G2 DNA content
Hit rule: 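Active siRNAs have a G2 robust z of 5 or more median absolute deviations over the median, which in these data means about 38% or higher of GMNN control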

gene symbol	reagent	G2 robust z-score	G2 cells, % of GMNN control	raw share of cells in G2 (%)	call
LINC01091 (long independently transcribed non-coding RNA 1091)	1	-0.771	-2.46	2.43	inactive
LINC01091 (long independently transcribed non-coding RNA 1091)	2	-0.000949	2.96	4.76	inactive
LINC01091 (long independently transcribed non-coding RNA 1091)	3	-0.0132	2.87	4.31	inactive
TRIM23 (tripartite motif containing 23)	1	-0.786	-2.56	3.04	inactive
TRIM23 (tripartite motif containing 23)	2	-1.04	-4.31	3.25	inactive
TRIM23 (tripartite motif containing 23)	3	-1.12	-4.9	3.33	inactive
DACT2 (dishevelled binding antagonist of beta catenin 2)	1	0.0308	3.18	3.77	inactive
DACT2 (dishevelled binding antagonist of beta catenin 2)	2	-0.342	0.561	3.8	inactive
DACT2 (dishevelled binding antagonist of beta catenin 2)	3	-0.0868	2.36	3.75	inactive
TMEM128 (transmembrane protein 128)	1	-0.265	1.11	3.28	inactive
TMEM128 (transmembrane protein 128)	2	0.877	9.14	7.96	inactive
TMEM128 (transmembrane protein 128)	3	3.07	24.6	10.7	inactive
LINC02510 (long independently transcribed non-coding RNA 2510)	1	0.0361	3.22	5.16	inactive
LINC02510 (long independently transcribed non-coding RNA 2510)	2	-0.479	-0.404	3.19	inactive
LINC02510 (long independently transcribed non-coding RNA 2510)	3	-0.485	-0.443	2.93	inactive
VTCN1 (V-set domain containing T cell activation inhibitor 1)	1	3.73	29.2	16.6	inactive
VTCN1 (V-set domain containing T cell activation inhibitor 1)	2	2.45	20.2	13.1	inactive
VTCN1 (V-set domain containing T cell activation inhibitor 1)	3	3.47	27.4	9.86	inactive
POTEA (POTE ankyrin domain family member A (gene/pseudogene))	1	0.525	6.66	6.87	inactive
POTEA (POTE ankyrin domain family member A (gene/pseudogene))	2	0.0975	3.65	5.24	inactive
POTEA (POTE ankyrin domain family member A (gene/pseudogene))	3	-0.851	-3.02	1.94	inactive
ADGRF4 (adhesion G protein-coupled receptor F4)	1	-1.34	-6.47	3.53	inactive
ADGRF4 (adhesion G protein-coupled receptor F4)	2	0.607	7.24	7.05	inactive
ADGRF4 (adhesion G protein-coupled receptor F4)	3	-0.618	-1.38	2.85	inactive
LOC344382	1	1.17	11.2	7.84	inactive
LOC344382	2	0.456	6.18	5.96	inactive
LOC344382	3	-0.0467	2.64	5.25	inactive
MFN2 (mitofusin 2)	1	-0.493	-0.503	4.63	inactive
MFN2 (mitofusin 2)	2	-0.476	-0.38	4.19	inactive
MFN2 (mitofusin 2)	3	-0.944	-3.67	2.39	inactive

Records listed so far whose target name begins with D or d:
gene symbol	reagent	G2 robust z-score	G2 cells, % of GMNN control	raw share of cells in G2 (%)	call
DACT2 (dishevelled binding antagonist of beta catenin 2)	1	0.0308	3.18	3.77	inactive
DACT2 (dishevelled binding antagonist of beta catenin 2)	2	-0.342	0.561	3.8	inactive
DACT2 (dishevelled binding antagonist of beta catenin 2)	3	-0.0868	2.36	3.75	inactive
